Measured values published in publication PMC11345648.
These are yes or no findings as the source states them, for the method shown. Binding seen in cells or lysates may run through a third protein. A yes stands for co-enrichment or nearness to the bait. Other partners may have been found.

The chains behind the UniProt entries cited, without tags or fusion partners.
UniProt P42568: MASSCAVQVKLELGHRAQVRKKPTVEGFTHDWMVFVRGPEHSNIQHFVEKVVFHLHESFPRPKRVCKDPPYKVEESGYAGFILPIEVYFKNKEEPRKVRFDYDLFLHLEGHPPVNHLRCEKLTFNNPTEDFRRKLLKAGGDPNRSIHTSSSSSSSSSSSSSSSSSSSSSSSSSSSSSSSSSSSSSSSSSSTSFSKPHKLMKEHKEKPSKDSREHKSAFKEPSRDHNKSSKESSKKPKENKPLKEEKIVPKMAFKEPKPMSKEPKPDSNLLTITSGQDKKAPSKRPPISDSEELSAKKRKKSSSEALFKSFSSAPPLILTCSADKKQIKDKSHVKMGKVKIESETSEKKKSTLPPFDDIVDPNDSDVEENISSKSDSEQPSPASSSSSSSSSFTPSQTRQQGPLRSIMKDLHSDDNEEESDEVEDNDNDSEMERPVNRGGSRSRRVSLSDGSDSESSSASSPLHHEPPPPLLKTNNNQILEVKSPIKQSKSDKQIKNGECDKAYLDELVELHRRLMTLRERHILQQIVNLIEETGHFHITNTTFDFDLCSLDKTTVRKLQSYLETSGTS
UniProt Q9UBL3: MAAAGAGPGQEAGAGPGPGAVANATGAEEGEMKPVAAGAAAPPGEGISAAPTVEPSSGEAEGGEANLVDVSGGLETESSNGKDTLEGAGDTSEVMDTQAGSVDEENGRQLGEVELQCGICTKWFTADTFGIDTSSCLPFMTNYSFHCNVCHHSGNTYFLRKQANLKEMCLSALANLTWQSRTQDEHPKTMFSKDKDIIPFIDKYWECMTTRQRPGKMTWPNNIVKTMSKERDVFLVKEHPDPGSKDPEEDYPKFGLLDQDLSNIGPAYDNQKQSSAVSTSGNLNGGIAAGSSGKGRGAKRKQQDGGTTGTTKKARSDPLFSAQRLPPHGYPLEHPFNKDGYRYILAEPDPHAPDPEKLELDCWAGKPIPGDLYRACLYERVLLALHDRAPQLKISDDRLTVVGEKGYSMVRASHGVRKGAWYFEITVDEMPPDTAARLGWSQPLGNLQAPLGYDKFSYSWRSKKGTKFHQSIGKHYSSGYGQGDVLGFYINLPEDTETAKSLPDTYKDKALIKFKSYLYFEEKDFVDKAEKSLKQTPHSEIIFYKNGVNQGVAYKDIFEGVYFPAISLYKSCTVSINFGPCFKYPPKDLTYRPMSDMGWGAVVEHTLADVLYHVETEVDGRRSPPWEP
UniProt Q9C005: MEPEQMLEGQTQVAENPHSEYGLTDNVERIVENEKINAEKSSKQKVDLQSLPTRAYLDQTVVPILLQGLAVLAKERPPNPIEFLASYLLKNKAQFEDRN
UniProt Q9UMN6: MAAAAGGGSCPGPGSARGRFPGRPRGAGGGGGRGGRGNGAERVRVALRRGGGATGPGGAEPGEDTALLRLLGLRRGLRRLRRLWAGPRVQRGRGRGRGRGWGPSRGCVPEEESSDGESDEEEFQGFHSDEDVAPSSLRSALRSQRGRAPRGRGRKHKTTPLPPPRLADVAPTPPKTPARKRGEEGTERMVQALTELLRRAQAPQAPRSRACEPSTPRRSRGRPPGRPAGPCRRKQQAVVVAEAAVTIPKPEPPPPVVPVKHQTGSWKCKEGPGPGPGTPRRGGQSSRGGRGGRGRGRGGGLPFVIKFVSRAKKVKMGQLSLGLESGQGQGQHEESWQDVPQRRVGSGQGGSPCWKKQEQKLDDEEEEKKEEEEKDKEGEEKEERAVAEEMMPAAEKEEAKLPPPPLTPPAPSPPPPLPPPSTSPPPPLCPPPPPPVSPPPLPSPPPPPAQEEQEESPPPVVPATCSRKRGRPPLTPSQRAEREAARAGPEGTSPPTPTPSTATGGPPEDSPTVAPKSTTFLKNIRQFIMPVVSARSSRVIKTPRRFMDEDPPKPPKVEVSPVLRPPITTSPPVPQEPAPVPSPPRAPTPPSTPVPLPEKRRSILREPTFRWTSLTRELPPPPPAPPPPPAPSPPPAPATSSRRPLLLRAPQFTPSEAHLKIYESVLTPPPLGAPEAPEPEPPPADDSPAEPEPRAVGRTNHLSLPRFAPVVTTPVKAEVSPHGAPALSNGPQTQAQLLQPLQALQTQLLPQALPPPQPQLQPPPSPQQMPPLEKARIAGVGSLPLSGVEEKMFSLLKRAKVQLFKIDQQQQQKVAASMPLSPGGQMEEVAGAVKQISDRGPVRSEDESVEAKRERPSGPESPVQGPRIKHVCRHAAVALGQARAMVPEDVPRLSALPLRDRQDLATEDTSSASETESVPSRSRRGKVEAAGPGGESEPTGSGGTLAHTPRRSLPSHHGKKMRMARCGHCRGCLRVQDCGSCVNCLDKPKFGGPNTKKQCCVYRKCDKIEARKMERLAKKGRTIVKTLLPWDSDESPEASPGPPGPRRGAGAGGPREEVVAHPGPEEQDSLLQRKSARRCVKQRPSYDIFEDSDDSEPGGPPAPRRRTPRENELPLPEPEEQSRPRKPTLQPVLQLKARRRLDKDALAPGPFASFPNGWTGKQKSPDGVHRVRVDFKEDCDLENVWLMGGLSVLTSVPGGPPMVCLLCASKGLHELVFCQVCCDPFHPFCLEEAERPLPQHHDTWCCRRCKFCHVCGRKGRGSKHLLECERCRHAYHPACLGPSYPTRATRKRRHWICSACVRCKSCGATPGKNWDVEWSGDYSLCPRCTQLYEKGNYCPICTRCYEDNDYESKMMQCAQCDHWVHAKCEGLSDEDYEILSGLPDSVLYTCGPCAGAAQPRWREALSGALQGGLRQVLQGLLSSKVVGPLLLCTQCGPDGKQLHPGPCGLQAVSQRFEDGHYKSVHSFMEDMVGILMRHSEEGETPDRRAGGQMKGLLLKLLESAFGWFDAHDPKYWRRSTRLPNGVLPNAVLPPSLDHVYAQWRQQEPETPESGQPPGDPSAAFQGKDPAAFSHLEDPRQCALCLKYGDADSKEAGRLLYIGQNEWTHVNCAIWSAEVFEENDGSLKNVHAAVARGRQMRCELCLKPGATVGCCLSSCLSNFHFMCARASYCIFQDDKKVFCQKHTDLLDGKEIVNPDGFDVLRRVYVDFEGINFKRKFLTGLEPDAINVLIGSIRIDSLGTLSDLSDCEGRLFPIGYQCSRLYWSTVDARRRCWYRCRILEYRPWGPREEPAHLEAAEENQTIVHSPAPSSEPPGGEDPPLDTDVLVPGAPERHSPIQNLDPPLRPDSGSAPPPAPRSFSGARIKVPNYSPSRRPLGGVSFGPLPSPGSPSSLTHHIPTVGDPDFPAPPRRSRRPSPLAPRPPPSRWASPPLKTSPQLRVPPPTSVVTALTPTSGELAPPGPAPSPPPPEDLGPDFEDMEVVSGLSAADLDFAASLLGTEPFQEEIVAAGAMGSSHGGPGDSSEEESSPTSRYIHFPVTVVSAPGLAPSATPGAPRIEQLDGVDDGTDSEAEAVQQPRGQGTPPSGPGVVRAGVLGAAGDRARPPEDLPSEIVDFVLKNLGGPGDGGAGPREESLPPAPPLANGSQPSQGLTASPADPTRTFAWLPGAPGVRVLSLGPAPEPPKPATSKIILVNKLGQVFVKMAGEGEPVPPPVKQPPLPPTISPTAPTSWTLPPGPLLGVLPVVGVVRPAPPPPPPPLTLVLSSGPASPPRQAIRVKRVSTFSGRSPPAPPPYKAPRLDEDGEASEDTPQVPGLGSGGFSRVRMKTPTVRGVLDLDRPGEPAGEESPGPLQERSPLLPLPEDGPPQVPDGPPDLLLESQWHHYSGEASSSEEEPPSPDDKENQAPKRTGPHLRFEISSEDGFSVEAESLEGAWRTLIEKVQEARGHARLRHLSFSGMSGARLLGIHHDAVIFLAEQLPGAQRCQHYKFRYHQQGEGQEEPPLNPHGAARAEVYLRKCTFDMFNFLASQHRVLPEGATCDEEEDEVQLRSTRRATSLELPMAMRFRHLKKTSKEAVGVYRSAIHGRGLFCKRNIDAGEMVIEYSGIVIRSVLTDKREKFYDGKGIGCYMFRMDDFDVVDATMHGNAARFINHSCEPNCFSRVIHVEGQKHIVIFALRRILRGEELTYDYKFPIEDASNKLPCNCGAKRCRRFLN
UniProt Q15291: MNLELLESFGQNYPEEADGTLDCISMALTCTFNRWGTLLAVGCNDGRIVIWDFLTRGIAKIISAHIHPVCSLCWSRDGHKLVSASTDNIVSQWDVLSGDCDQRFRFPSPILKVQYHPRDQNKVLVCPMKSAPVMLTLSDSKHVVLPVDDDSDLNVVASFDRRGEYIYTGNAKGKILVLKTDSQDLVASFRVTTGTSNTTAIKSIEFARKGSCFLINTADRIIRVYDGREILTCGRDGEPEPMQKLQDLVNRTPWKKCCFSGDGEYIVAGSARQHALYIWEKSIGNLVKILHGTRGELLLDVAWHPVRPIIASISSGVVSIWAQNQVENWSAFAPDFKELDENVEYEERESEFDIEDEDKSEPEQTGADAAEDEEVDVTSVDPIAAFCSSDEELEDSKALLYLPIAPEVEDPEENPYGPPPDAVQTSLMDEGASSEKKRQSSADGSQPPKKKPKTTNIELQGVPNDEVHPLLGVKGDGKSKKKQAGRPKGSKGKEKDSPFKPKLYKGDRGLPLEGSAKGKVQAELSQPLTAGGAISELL
UniProt O75475: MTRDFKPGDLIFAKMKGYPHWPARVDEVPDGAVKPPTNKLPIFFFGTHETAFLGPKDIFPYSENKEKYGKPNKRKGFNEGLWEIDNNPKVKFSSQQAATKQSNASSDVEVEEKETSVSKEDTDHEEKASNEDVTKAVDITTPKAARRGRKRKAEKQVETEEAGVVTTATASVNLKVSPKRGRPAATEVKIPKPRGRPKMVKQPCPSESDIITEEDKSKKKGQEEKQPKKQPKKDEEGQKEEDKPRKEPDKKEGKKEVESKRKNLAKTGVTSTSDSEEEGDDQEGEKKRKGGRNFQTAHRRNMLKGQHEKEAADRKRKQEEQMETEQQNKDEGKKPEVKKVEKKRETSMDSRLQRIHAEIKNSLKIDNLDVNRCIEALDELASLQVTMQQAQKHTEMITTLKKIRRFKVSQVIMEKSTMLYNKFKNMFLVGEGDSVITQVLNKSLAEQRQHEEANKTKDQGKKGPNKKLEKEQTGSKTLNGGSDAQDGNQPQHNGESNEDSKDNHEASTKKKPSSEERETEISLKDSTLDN
UniProt O00255: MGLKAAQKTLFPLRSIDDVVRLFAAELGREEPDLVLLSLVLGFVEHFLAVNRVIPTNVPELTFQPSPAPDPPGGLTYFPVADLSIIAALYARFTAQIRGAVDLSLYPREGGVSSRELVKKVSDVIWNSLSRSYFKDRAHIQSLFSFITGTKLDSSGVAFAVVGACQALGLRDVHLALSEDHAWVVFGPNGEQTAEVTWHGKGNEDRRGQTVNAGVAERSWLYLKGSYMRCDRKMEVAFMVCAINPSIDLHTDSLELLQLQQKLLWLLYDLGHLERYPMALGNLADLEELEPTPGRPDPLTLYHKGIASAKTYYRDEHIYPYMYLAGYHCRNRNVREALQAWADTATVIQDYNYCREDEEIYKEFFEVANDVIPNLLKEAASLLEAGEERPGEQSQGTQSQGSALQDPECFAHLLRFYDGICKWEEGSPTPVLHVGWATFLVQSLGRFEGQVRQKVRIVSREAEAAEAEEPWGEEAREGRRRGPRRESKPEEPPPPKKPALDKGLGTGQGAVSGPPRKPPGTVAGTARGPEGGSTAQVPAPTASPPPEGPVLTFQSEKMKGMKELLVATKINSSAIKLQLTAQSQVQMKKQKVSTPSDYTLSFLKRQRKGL

Biological target: AF9 (human (endogenous in HEL)) (UniProt P42568)
Assay: affinity purification with mass spectrometry; large-scale coimmunoprecipitation from nuclear extract of HEL cells with the AF9-N antibody (rabbit IgG as control); immunoprecipitated proteins analysed by mass spectrometry

binding, binds:
ASH2L (from UniProt Q9UBL3 1-628)
DPY30 (from UniProt Q9C005 1-99)
KMT2B (from UniProt Q9UMN6 1-2715)
RBBP5 (from UniProt Q15291 1-538)
lens epithelium derived growth factor (from UniProt O75475 1-530)
menin (from UniProt O00255 1-610)
